Experimental data: PubChem BioAssay AID602203 (INSERM, 2012)

- Assay: 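Confirming genes that raise or lower cisplatin-induced death in A549 cells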 (follow-up of hits)
- Cells: human A549 lung cancer cells
- Knock-down reagent: siRNA pair against human genes
- Conditions: cisplatin at a dose killing half of control-siRNA cells, given 48 h after transfection
- Detection: 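Two siRNAs per gene scored +1 protective, -1 sensitizing, 0 if toxic by LDH or growth-reducing by WST-1; cisplatin given 48 h later at 50% control kill; scores summed, mean death shift versus control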
- Scale: summed siRNA score for cisplatin death: higher = more siRNAs reduced cisplatin-induced cell death; change in cisplatin death versus control: higher = fewer cells died than in control
- Rule for the call: In these data the active calls have summed siRNA score for cisplatin death at about -3 or lower, or at about 3 or higher
The whole screen tested 999 reagents; below is a random part of them. Of all reagents, 85 (8.5%) got an active call. 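Unclear how single-siRNA scores of -1, 0 or +1 give the printed -4 to 4 range; calls lie near -3 or 3 and beyond.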 No sequences are given here. The record does not give: the amount of reagent, the time to read-out, the dose of the treatment.

gene | PubChem SID | summed siRNA score for cisplatin death | change in cisplatin death versus control (percentage points) | call
CDC7 | SID131500333 | -2 | – | inactive
IAPP | SID131500429 | -4 | -8.82 | active
CEACAM4 | SID131523220 | 2 | – | inactive
NEXMIF | SID131523173 | 0 | – | inactive
SEC23A | SID131523143 | 0 | – | inactive
VTI1A | SID131521446 | 0 | – | inactive
ARL2 | SID131521578 | -1 | – | inactive
FLOT2 | SID131500375 | -4 | -9.25 | active
ARG99 | SID131522367 | 1 | – | inactive
PEX12 | SID131502777 | 0 | – | inactive
FKBP4P2 | SID131500409 | -3 | -11.7 | active
GLE1 | SID131523125 | 1 | – | inactive
NCOA2 | SID131500360 | -1 | – | inactive
PSMD7 | SID131522832 | 3 | 16 | active
BEND2 | SID131522930 | 0 | – | inactive
MYCLP1 | SID131500495 | -2 | – | inactive
CCDC197 | SID131500382 | -2 | – | inactive
MYF6 | SID131500491 | -1 | – | inactive
PER1 | SID131500990 | -2 | – | inactive
ACAD10 | SID131522659 | 0 | – | inactive
KIF1C | SID131500388 | -1 | – | inactive
FBXO6 | SID131500294 | -1 | – | inactive
EEF2 | SID131523075 | 3 | 6.32 | active
LOC442219 | SID131522945 | -2 | – | inactive

Sorted by “summed siRNA score for cisplatin death” (highest first): 6 of the entries above
gene | PubChem SID | summed siRNA score for cisplatin death | change in cisplatin death versus control (percentage points) | call
CEACAM4 | SID131523220 | 2 | – | inactive
NEXMIF | SID131523173 | 0 | – | inactive
SEC23A | SID131523143 | 0 | – | inactive
VTI1A | SID131521446 | 0 | – | inactive
ARL2 | SID131521578 | -1 | – | inactive
IAPP | SID131500429 | -4 | -8.82 | active

Further results:
gene | PubChem SID | summed siRNA score for cisplatin death | change in cisplatin death versus control (percentage points) | call
PRAC2 | SID131523096 | 1 | – | inactive
RCL1 | SID131522940 | -1 | – | inactive
CYP39A1 | SID131500454 | 1 | – | inactive
SNAPC5 | SID131522996 | -1 | – | inactive
PRSS8 | SID131500430 | -1 | – | inactive
LOC441740 | SID131523136 | 1 | – | inactive
UBAC1 | SID131500309 | -1 | – | inactive
HLA-E | SID131502787 | 0 | – | inactive
LOC440360 | SID131522863 | 0 | – | inactive
S100A7A | SID131522923 | 0 | – | inactive
MAP3K14 | SID131522903 | 2 | – | inactive
DNMT3L | SID131500891 | -1 | – | inactive
MTTP | SID131501042 | -1 | – | inactive
FBXO24 | SID131500457 | 0 | – | inactive
BRIP1 | SID131522909 | 1 | – | inactive
ATP8B2 | SID131522189 | 1 | – | inactive
LOC442115 | SID131522884 | 2 | – | inactive
GUCY1A2 | SID131500436 | -2 | – | inactive
LOC440050 | SID131522992 | 1 | – | inactive
STX1A | SID131500338 | -1 | – | inactive
LOC390533 | SID131522472 | -3 | -9.25 | active
LOC139189 | SID131522905 | 0 | – | inactive
PAGE2 | SID131522689 | 0 | – | inactive
ZNF664 | SID131523080 | 1 | – | inactive
KLRC4 | SID131500354 | -1 | – | inactive
MAFF | SID131500701 | -1 | – | inactive
